According to the supplement of paper PMC12889115:
Some of the results follow. Values are raw readings; no control value is given beside them.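 Primary screen: polymyxin B was added at a level permeabilizing Salmonella outer membranes while sparing inner membranes. DMSO wells, both with and without polymyxin B, established maximum growth. Plate-to-plate variation meant each plate was ranked on its own, and the lowest-OD600 compounds were selected as hits.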

System: Salmonella enterica serovar Typhimurium SL1344
Assay: bacterial growth OD600 after 18 h with compound and polymyxin B; higher = more bacterial growth (less inhibition)
Conditions: 50 µM, Mueller-Hinton broth

SMILES	bacterial growth OD600 (polymyxin B 1 µg/mL)	bacterial growth OD600 (polymyxin B 0.75 µg/mL)
OC(COc1cccc(CN2CCN(C3CCCCC3)CC2)c1)CN1CCOCC1 (stereo not given)	0.86	–
COc1ccccc1C1(CC(=O)N(C)CC2Cc3ccccc3O2)CC(=O)N(C2CCCC2)C1=O (stereo not given)	–	0.005
COc1cccc(CC(C2CCN(C(=O)CC3CCCC3)CC2)N(C)C(=O)c2ccn(C)n2)c1 (stereo not given)	–	0.771
O=C(NCC1CCCN(C(=O)CCn2cncn2)C1)c1ccc(-c2ccccc2)cc1 (stereo not given)	0.922	–
COc1ccc(C(=O)N2CCCC(CCC(=O)Nc3ccc(OC)c(Cl)c3)C2)o1 (stereo not given)	1.1	–
COCc1ccc(C(=O)Nc2ccc(-c3nc(CNC(=O)c4cccnc4C)c(C)o3)cc2)o1	–	0.816
CCN(CC1CCCN(CCc2cccc(OC)c2)C1)C(=O)CCC(=O)OC (stereo not given)	0.937	–
COc1ccc(NC(=O)CCC2CCN(C(=O)CC3=CCCCC3)CC2)c(OC)c1	0.862	–
CN(Cc1nc(-c2ccccn2)no1)C1CCCCC1	0.962	–
Cn1cc(CN2CCc3c([nH]c4ccccc34)C2c2cc(F)ccc2F)cn1 (stereo not given)	0.427	–
CCOC(=O)N1CCC(N2CCN(Cc3ccccc3F)C(CCO)C2)CC1 (stereo not given)	0.96	–
NC(=O)CCN1CCN(Cc2cn(-c3ccccc3)nc2-c2ccc3c(c2)OCO3)CC1	0.923	–
CCn1cc(CN2CCCC(C(=O)Nc3ccc(-c4ccco4)cc3)C2)c(C)n1 (stereo not given)	–	0.642
O=C(c1ccc(N2CCC(NCc3csc(Cc4ccccc4)n3)CC2)cc1)N1CCOCC1	–	0.83
COc1cccc(CNC(=O)c2cc(COc3c(C)cccc3C)on2)c1OC	–	0.578
COc1ccccc1C(=O)C1CCCN(C(=O)c2ccc(F)c(F)c2)C1 (stereo not given)	0.861	–
COCCCN1C(=O)CC(CC(=O)N2CCN(c3ccccc3)C(=O)C2)(c2ccccc2OC)C1=O (stereo not given)	–	0.875
Cc1ccccc1-n1ncc2c1CC(C)(C)CC2NC(=O)C(C)(C)C (stereo not given)	–	0.538
Cc1cc(F)ccc1NC(=O)CCC1CCCN(C(=O)c2ccc3c(c2)no[n+]3[O-])C1 (stereo not given)	0.856	–
C=CCC(=O)NC1CC(C)(C)Cc2c1cnn2-c1ccc(F)cc1 (stereo not given)	–	0.459
O=C(C1CCN(Cc2nc(-c3ccccc3)no2)CC1)N1CCCCC1	–	0.831
CS(=O)(=O)c1ncc(CN2CCCC(c3ccccc3)C2)n1Cc1ccccc1F (stereo not given)	0.5	–
Cc1ccccc1N1C(=O)CN(C(=O)c2cc(C3CC3)nc3ccccc23)CC1C (stereo not given)	–	0.856
COc1ccc(CN2CCC(CO)(Cc3ccccc3)CC2)c(Cl)c1OC	0.761	–
CCOC(=O)N1CCN(C(=O)c2cc(NC(=O)COC)cc3ncn(Cc4ccc(F)cc4)c23)CC1	–	0.786
COc1ccc(CNC(=O)CCC2CCCN(C(=O)c3cc(C(C)C)no3)C2)c(OC)c1 (stereo not given)	0.839	–
C=CCn1cc(CN2CCOC(CCN(C)C)C2)c(C)n1 (stereo not given)	–	0.846
Cc1ccc(CN2CCNC(=O)C2CC(=O)N2CCN(c3ccccc3)CC2)cc1 (stereo not given)	1.01	–
COCc1ccc(C(=O)Nc2ccc(-c3nc(CNC(=O)c4c(F)cccc4F)c(C)o3)cc2)o1	–	0.713
COc1ccccc1C1CN(CC(=O)NCC2(c3ccccc3)CCOCC2)Cc2ccccc2O1 (stereo not given)	–	0.006

Full records from above. Values in the order: bacterial growth OD600 (polymyxin B 1 µg/mL) | bacterial growth OD600 (polymyxin B 0.75 µg/mL)
COc1ccc(CN2CCC(CO)(Cc3ccccc3)CC2)c(Cl)c1OC is entered as 0.761 | –
COc1cccc(CNC(=O)c2cc(COc3c(C)cccc3C)on2)c1OC is entered as – | 0.578
